“And” between values parts separate entries of the source, which are not always exact repeats. Identical values can stand only once. About 3,700 (1.2%) of roughly 300,000 compounds were called active. The shares of active, inactive and inconclusive entries below differ from those in the screen. Calls follow the shape of the full dose curve; tested in HEK293 cells. A potency beside an inconclusive call is a rough fit, not a confirmed value.
Assay: qHTS for Inhibitors of binding or entry into cells for Lassa Virus; also: nearly all actives have a fitted effect of over 50% in size
Settings: Lassa virus pseudotype entry inhibition, cell reporter; series mostly up to 37.9 µM
In the case of COC(=O)c1c(-c2ccc(Br)cc2)noc1N, the Potency was inconclusive: 23.1 µM [inhibitor, single point]. In the case of CCOP(=O)(OCC)c1nc(-c2ccc(Cl)cc2)oc1NCc1ccccc1, the Potency was inconclusive: 20.6 µM [inhibitor, partial curve, poor fit]. In the case of CCCCOc1ccc(C(=O)N/C(=C/C=C/c2ccccc2)C(=O)NC)cc1, the Potency was inconclusive: 6.51 µM [inhibitor, full curve, poor fit]. With O=C(c1ccccc1)C(CCC(CN1CCOCC1)C(=O)c1ccccc1)CN1CCOCC1 (centres undefined) the Potency was active: 14.1 µM. For C=CCn1c(SCc2c(C)noc2C)nc2sc3c(c2c1=O)CCCCC3, the Potency was “inactive”. In the case of CCOC(=O)c1c(C)[nH]c(C(=O)N/N=C/c2cccc(OC)c2)c1C, the Potency was inconclusive: 1.41 µM [inhibitor, full curve, poor fit]. In the case of CCOC(=O)N1CCN(C(=O)CCC(=O)c2ccc(OCC)cc2)CC1, the Potency was active: 11.2 µM. With O=C(CSc1ncc2c(n1)-c1ccc(Cl)cc1N(Cc1ccccc1)S2(=O)=O)Nc1ccc(F)c(F)c1 the Potency was inconclusive: 3.55 µM [activator, partial curve, poor fit]. In the case of CCc1cc2c(NCCN3CCCCC3)ncnc2s1, the Potency was inconclusive: 23.1 µM [inhibitor, single point]. With O=C1CC(=C(c2ccccc2)c2ccccc2)C(=O)N1CCCCN1CCN(c2cccc(Cl)c2)CC1 the Potency was inconclusive: 25.1 µM [inhibitor, single point]. With O=C(NNC(=S)NC1CCCCC1)c1ccccc1O the Potency was “inactive”. For Nc1ccc(S(=O)(=O)Nc2nccc(/C=C/c3cccc(Br)c3)n2)cc1, the Potency was inconclusive: 22.4 µM [inhibitor, single point]. With O=c1[nH]c(SCc2ccccc2Cl)nc2[nH]ncc12 the Potency was inconclusive: 10 µM [activator, partial curve]. With CC(OC(=O)c1ccccc1)C(=O)NCCC1=CCCCC1 (centres undefined) the Potency was inconclusive: 3.55 µM [activator, full curve, poor fit]. In the case of Cc1ccsc1C(=O)C1CCCN(Cc2cn(C)nc2-c2ccccc2)C1 (centres undefined), the Potency was inconclusive: 22.4 µM [inhibitor, single point]. With Cc1nc2ccc(NC(=O)N(C)c3ccccc3)cc2s1 the Potency was inconclusive: 17.8 µM [inhibitor, single point]. In the case of Cn1ccc2c(-c3cncc4ccccc34)cc3c(c21)C1CCC3C1 (centres undefined), the Potency was inconclusive: 2.81 µM [activator, single point]. In the case of Cc1nn2cc(-c3cccc(Cl)c3)cnc2c1Cl, the Potency was inconclusive: 2.24 µM [inhibitor, partial curve]. For CCOc1ccc(N(C)Cc2cc(=O)oc3ccc(OCC)cc23)cc1, the Potency was inconclusive: 11.2 µM [inhibitor, partial curve, poor fit]. For COc1cccc(CNC(=O)c2ccc3nc(-c4ccc(F)cc4)c(-c4ccc(F)cc4)nc3c2)c1, the Potency was inconclusive: 20 µM [activator, single point]. With C/C(=N/OCC(=O)NCCCCCCNC(=O)CO/N=C(/C)c1cccs1)c1cccs1 the Potency was inconclusive: 29.1 µM [inhibitor, single point]. For Cc1cc(Br)ccc1NC(=O)CN(C)C(=O)c1cc([N+](=O)[O-])ccc1N1CCOCC1, the Potency was “inactive”. With CC1CCN(C(=O)CSc2ccc(-c3ccc4c(c3)OCCO4)nn2)CC1 the Potency was “inactive”. With Cc1c(C(=O)NCc2cccnc2)oc2ccccc12 the Potency was “inactive”. In the case of CCN=C1S/C(=C/c2ccc(-c3ccc(F)cc3)o2)C(=O)N1CC, the Potency was inconclusive: 1 µM [inhibitor, full curve, poor fit]. With COc1cc(C2c3c(-c4ccccc4O)n[nH]c3C(=O)N2CCO)ccc1OCc1ccccc1 (centres undefined) the Potency was inconclusive: 2.24 µM [inhibitor, full curve, poor fit]. For Cc1ccc(CN2C(=O)/C(=C\c3ccc(C(=O)NCc4cccnc4)cc3)Oc3ccccc32)cc1, the Potency was inconclusive: 25.9 µM [activator, partial curve, poor fit]. With COc1cc(C(=O)Nc2cccc(-c3nc4cc(C)cc(C)c4o3)c2)cc(OC)c1OC the Potency was inconclusive: 5.17 µM [inhibitor, partial curve, poor fit]. With CCCCOC(=O)Nc1nnc(CC)s1 the Potency was inconclusive: 3.66 µM [activator, full curve, poor fit]. For Clc1ccsc1-c1csc(-c2cccnc2)n1, the Potency was “inactive”. For COc1ccc(OCC(=O)NNC(=O)c2cc3ccccc3o2)cc1, the Potency was “inactive”. For CCCCN(C)C(=S)Nc1ccc2nc3n(c(=O)c2c1)CCCCC3, the Potency was inconclusive: 3.55 µM [inhibitor, partial curve, poor fit]. For O=C(c1cccs1)c1cn(CCOc2ccccc2F)c2ccccc12, the Potency was “inactive”. With O=CNc1cc2c(cc1Br)-c1ccccc1C2O (centres undefined) the Potency was inconclusive: 1.26 µM [activator, full curve]. With CCOc1ccc(-n2c(-c3cccs3)nc3ccccc3c2=O)cc1 the Potency was “inactive”. In the case of N/C(CSc1ccc(Cl)cc1)=N\NC(=O)c1ccncc1, the Potency was inconclusive: 35.5 µM [inhibitor, partial curve, poor fit]. With CCOC(=O)c1c(-c2ccc(C)o2)csc1NC(=O)CSc1ncn[nH]1 the Potency was “inactive”. For Cc1ccc(CN2CCC(n3nccc3NC(=O)C3CCOC3)CC2)cc1C (centres undefined), the Potency was “inactive”. For COc1cccc(CN2C(=O)c3ccccc3Sc3ccc(C(=O)N(C)Cc4ccccc4)cc32)c1, the Potency was inconclusive: 20 µM [inhibitor, partial curve, poor fit]. For CCOC(=O)c1c(C)n(CCOC)c2ccc(O)cc12, the Potency was inconclusive: 28.2 µM [activator, partial curve, poor fit]. For Cc1ccc(S(=O)(=O)SC/C=C/CSS(=O)(=O)c2ccc(C)cc2)cc1, the Potency was “inactive”. For O=C(N/N=C/c1ccccn1)c1cc(Br)ccc1O, the Potency was inconclusive: 5.62 µM [activator, single point]. With O=S1(=O)CCN(c2ccccc2CC(c2c[nH]c3ccccc23)c2c[nH]c3ccccc23)CC1 the Potency was inconclusive: 14.1 µM [inhibitor, partial curve, poor fit]. For COc1ccc(S(=O)(=O)Nc2cccc(-c3ccc(N4CCC(C)CC4)nn3)c2)cc1OC, the Potency was “inactive”. With COc1ccc(C(CC(=O)c2ccc(C)cc2)C(C#N)C#N)cc1OC (centres undefined) the Potency was inconclusive: 35.5 µM [inhibitor, single point]. With CC1=C(C(=O)Nc2ccccc2C)C(c2ccncc2)n2nc(SCc3ccccc3Cl)nc2N1 (centres undefined) the Potency was “inactive”. With CC(=N\Nc1ccc(Cl)cc1)/C(=N/O)C(=O)Nc1ccccc1 the Potency was “inactive”. In the case of S=c1nc(-c2ccccc2)n(CCN2CCOCC2)c2c1CCCC2, the Potency was inconclusive: 6.51 µM [inhibitor, single point]. For O=C(NCCc1ccc(Cl)cc1)Nc1ccc(F)cc1, the Potency was “inactive”. For CCOC(=O)c1c(CN2CCCCC2)n(C)c2cc(Br)c(OC)cc12, the Potency was inconclusive: 15.8 µM [inhibitor, partial curve, poor fit]. In the case of CC(=O)c1cccc(NC(=O)CN2C=NS(=O)(=O)c3ccc(C)cc32)c1, the Potency was “inactive and inconclusive: 25.1 µM [activator, partial curve, poor fit]”. In the case of Cc1cccc(CNS(=O)(=O)c2ccc(-c3cnc(C4CC4)o3)cc2)c1, the Potency was inconclusive: 22.4 µM [inhibitor, single point]. For Cc1nc(SCc2ccc(F)cc2)n[nH]1, the Potency was “inactive”. With CC1=C(C(=O)Nc2cccnc2)C(c2cccc(Br)c2)n2nc(SCc3ccccc3)nc2N1 (centres undefined) the Potency was inconclusive: 31.6 µM [activator, single point]. For CCOc1cc2c(cc1OCC)-n1cccc1C(c1ccccc1OC)NC2 (centres undefined), the Potency was “inactive”. With Cc1ccc(CNC(=O)COCc2cc(-c3cccs3)on2)cc1 the Potency was inconclusive: 11.2 µM [inhibitor, partial curve, poor fit]. For COc1ccc(C(=O)Nc2nc3nc(C)c(Cc4ccccc4)c(=O)n3[nH]2)cc1OC, the Potency was inconclusive: 35.5 µM [activator, single point]. For COc1ccc(N2CCN(c3ncnc4c3[nH]c3ccccc34)CC2)cc1, the Potency was inconclusive: 22.4 µM [inhibitor, partial curve, poor fit]. For CCCCC(=O)Nc1cc(OC)c(NC(=O)C2CCCCC2)cc1OC, the Potency was inconclusive: 25.9 µM [inhibitor, single point]. For CN(C)c1ccc(NC(=O)CSc2nnc(-c3ccco3)c(-c3ccco3)n2)cc1, the Potency was inconclusive: 25.1 µM [inhibitor, single point]. For CCOC(=O)N1CCN(C(=O)c2cc(-c3ccc(OCC)cc3)nc3ccccc23)CC1, the Potency was active: 4.61 µM. For Nc1ccc2oc(-c3cccc4ccccc34)nc2c1, the Potency was inconclusive: 11.2 µM [inhibitor, partial curve, poor fit]. For Cc1ccc(NC(=O)Cn2cc(C(=O)C3CC3)c3ccccc32)c(C)c1, the Potency was “inactive”. With COc1ccc(C2CC(c3cccs3)=NN2C(=O)CN2CCCCC2)cc1 (centres undefined) the Potency was “inactive”. With O=C(COC(=O)CCc1ccccc1)Nc1ncc(Cl)cc1Cl the Potency was “inactive”. In the case of CSc1ccc(OC2CCN(Cc3ccccc3)CC2)cc1, the Potency was inconclusive: 32.6 µM [inhibitor, single point]. With CC(C)CCNC(=O)c1ccc2c(c1)NC(=O)C(CS(=O)(=O)Cc1ccc(F)cc1)N2 (centres undefined) the Potency was “inactive”. For O=C(Nc1nnc(-c2cccc(F)c2)s1)Nc1ccccc1F, the Potency was inconclusive: 3.16 µM [activator, single point]. In the case of Cc1cc(C)nc(Sc2nc(C)nc3c2oc2ccccc23)n1, the Potency was inconclusive: 10 µM [inhibitor, partial curve, poor fit].

— PubChem BioAssay AID540256 (National Center for Advancing Translational Sciences (NCATS), 2011)
Potency is read from the fitted curve at half-maximal effect.
